Data published in paper PMC7293310.
No constants are given. Whether binding was seen depends on the method and setting. In cells and extracts the contact can be indirect. Here binding means that the protein was enriched with, or labelled near, the bait; the list need not be complete.

By UniProt entry, the sequences of proteins in these tests, tags left out.
UniProt P17679: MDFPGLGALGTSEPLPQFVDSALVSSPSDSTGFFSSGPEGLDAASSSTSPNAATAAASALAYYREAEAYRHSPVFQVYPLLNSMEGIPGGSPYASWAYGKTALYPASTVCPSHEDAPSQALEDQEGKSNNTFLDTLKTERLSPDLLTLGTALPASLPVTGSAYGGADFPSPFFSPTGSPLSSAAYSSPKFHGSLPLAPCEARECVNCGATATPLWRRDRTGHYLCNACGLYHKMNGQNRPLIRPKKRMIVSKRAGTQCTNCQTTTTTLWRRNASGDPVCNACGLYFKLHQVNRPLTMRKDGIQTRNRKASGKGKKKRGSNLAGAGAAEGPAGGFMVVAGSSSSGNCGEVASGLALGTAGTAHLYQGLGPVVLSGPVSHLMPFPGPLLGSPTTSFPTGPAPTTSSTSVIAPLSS
UniProt Q9Z2E1: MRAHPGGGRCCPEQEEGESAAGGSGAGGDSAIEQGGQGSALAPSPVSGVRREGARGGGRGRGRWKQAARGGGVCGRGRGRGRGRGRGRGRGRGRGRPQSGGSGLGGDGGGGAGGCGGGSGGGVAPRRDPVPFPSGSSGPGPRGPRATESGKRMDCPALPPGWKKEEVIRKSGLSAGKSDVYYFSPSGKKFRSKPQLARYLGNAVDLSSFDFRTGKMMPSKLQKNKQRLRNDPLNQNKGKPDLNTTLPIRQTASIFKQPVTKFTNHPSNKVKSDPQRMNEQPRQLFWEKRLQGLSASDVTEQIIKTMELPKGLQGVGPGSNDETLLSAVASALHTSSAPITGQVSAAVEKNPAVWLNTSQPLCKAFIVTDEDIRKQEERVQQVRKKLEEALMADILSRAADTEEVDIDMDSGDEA
UniProt Q60974: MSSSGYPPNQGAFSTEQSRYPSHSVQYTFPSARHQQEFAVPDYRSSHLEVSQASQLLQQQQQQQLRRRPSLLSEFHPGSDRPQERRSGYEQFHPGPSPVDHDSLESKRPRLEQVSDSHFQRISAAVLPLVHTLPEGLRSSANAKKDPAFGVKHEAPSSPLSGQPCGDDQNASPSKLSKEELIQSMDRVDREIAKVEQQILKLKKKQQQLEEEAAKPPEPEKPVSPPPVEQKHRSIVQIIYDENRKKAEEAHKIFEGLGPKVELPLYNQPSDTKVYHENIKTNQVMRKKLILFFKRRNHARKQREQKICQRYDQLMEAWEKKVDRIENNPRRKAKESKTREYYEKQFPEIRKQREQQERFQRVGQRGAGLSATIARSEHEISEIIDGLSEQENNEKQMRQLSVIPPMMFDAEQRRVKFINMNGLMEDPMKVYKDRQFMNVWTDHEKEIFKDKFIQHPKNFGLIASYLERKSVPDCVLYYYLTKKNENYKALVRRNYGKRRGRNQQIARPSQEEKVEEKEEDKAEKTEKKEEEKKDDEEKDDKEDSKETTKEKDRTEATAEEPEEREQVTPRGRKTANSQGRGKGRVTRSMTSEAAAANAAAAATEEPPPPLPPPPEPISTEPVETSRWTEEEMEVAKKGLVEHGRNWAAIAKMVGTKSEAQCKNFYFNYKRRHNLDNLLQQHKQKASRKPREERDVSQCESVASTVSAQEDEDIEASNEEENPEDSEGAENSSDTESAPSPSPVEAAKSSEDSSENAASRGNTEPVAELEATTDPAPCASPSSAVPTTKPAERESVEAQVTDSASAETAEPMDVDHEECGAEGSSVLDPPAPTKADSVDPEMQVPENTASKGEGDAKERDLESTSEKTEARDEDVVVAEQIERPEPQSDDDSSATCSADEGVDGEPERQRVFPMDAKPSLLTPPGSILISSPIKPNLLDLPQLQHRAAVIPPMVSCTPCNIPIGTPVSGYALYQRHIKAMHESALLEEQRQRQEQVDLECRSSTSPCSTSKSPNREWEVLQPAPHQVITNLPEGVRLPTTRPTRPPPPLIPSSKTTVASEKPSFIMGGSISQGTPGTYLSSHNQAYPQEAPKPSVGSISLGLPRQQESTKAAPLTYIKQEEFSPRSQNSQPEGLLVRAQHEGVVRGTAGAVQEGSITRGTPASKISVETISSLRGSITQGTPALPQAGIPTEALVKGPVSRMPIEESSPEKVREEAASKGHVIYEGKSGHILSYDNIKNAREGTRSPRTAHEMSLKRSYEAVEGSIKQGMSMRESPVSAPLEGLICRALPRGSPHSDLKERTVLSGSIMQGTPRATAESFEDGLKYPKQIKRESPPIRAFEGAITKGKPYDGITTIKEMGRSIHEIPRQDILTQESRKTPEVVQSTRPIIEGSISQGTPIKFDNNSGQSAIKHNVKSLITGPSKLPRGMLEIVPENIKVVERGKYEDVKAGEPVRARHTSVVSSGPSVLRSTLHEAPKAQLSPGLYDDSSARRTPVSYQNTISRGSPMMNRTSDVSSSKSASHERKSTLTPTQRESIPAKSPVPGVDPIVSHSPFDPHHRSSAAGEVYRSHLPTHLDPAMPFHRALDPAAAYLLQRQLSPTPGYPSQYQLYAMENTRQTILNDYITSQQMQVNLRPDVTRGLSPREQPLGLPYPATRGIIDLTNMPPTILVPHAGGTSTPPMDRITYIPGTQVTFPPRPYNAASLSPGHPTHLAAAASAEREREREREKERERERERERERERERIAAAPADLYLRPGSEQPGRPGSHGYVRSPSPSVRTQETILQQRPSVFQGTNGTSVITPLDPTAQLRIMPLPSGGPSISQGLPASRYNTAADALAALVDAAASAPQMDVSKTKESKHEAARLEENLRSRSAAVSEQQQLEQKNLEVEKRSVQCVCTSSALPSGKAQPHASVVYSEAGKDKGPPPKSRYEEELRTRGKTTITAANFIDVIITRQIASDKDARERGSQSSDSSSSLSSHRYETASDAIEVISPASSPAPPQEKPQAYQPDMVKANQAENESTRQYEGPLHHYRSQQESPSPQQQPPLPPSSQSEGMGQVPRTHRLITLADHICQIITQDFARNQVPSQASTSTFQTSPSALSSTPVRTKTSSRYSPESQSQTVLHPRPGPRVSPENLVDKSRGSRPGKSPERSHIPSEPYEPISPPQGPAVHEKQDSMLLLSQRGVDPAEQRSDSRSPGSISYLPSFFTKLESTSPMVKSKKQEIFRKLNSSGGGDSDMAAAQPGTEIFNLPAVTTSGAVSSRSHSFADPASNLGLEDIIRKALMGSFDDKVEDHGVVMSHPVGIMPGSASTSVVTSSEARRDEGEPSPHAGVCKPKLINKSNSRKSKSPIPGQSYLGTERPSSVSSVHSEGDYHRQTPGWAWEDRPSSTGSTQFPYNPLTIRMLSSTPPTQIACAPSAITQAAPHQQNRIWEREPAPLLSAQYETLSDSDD
UniProt Q03347: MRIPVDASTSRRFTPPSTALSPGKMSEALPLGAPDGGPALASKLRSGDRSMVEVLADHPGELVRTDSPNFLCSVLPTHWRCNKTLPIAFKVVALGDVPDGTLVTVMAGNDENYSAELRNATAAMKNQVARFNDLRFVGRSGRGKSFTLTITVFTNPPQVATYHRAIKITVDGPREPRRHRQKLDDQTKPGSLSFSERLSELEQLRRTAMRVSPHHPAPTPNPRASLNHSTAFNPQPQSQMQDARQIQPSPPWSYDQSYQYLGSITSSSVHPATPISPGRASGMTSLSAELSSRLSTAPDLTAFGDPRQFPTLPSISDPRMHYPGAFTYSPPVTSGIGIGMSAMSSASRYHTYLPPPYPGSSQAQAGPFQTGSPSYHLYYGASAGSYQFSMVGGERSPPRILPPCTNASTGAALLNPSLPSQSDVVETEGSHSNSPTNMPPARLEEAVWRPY
UniProt P22091: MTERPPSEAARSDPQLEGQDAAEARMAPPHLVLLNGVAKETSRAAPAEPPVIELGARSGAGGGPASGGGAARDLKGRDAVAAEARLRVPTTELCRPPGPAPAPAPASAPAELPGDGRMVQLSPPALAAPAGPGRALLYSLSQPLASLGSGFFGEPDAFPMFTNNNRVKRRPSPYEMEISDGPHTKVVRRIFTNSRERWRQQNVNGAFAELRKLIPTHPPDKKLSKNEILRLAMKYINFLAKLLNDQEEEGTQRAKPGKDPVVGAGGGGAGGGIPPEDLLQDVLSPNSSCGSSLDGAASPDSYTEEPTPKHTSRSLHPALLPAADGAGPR

The molecules below were run against GATA1 (mouse (endogenous in Nsd1−/− BM-derived erythroblasts)) (UniProt P17679) (assay: affinity purification with mass spectrometry; immunoprecipitation of endogenous GATA1 followed by mass spectrometry in Nsd1−/− BM-derived erythroblasts expressing wild-type Nsd1 or the inactive Nsd1^N1918Q mutant, kept for 24 h in differentiation medium; each group normalized to IgG control (n = 2)).

binding | Molecule
binds | MBD2 (from UniProt Q9Z2E1 1-414)
binds | NCOR1 (from UniProt Q60974 1-2453)
binds | RUNX1 (from UniProt Q03347 1-451)
binds | TAL1 (from UniProt P22091 1-329)
binds | ZFPM1 (protein, UniProt O35615 1-995) MSRRKQSNPRQIKRSLRDMEAGEEAKAMDSSPKEQEAPDPEAPAIEEPPSPPREDVSPPAVPAPPESPEDPEDMEGQELEMRPQDEEKEEKEEEAAMASPWSGPEELELALQDGQRCVRARLSLTEGLSWGPFYGSIQTRALSPEREEPGPAVTLMVDESCWLRMLPQVLTEEAANSEIYRKDDALWCRVTKVVPSGGLLYVRLVTEPHGAPRHPVQEPVEPGGLAPVHTDIQLLPQQAGMASILATAVINKDVFPCKDCGIWYRSERNLQAHLLYYCASRQRAGSPVSATEEKPKETYPNERVCPFPQCRKSCPSASSLEIHMRSHSGERPFVCLICLSAFTTKANCERHLKVHTDTLSGVCHNCGFISTTRDILYSHLVTNHMVCQPGSKGEIYSPGAGHPAAKLPPDSLAGFQQHSLMHSPLVPADKAPTPSSGLDSKAEVTNGETRVPPQNGGSSESPAAPRTIKVEAAEEPEATRASGPGEPGPQAPSRTPSPHSPNPVRVKTELSSPTPGSSPGPGELTMAGTLFLPQYVFSPDAGTTTVPTAPQASEILAKMSELVHNRLQQGAGSSGAAGTPTGLFSGTKGATCFECEITFNNINNFYVHKRLYCSGRRAPEDPPTVRRPKAATGPARAPAGAAAEPDPSRSSPGPGPREEEASGTTTPEAEAAGRGSEGSQSPGSSVDDAEDDPSRTLCEACNIRFSRHETYTVHKRYYCASRHDPPPRRPPAPTTAPGPAAPALTAPPVRTRRRRKLYELPAAGAPPPAAGPAPVPVVPSPTAELPSSPRPGSASAGPAPALSPSPVPDGPIDLSKRPRRQSPDAPTALPALADYHECTACRVSFHSLEAYLAHKKYSCPAAPLRTTALCPYCPPNGRVRGDLVEHLRQAHGLQVAKPAASPGAEPRTPAERAPRDSPDGRAPRSPSPAPENTPSDPADQGARTPSKGPPAPAPAPGGGGGHRYCRLCNIRFSSLSTFIAHKKYYCSSHAAEHVK
binds | TBLXR1 (protein, UniProt Q8BHJ5 1-514) MSISSDEVNFLVYRYLQESGFSHSAFTFGIESHISQSNINGALVPPAALISIIQKGLQYVEAEVSINEDGTLFDGRPIESLSLIDAVMPDVVQTRQQAYRDKLAQQHAAAAAAAAAATNQQGSAKNGENTANGEENGAHTIANNHTDMMEVDGDVEIPSNKAVVLRGHESEVFICAWNPVSDLLASGSGDSTARIWNLSENSTSGPTQLVLRHCIREGGQDVPSNKDVTSLDWNSEGTLLATGSYDGFARIWTKDGNLASTLGQHKGPIFALKWNKKGNFILSAGVDKTTIIWDAHTGEAKQQFPFHSAPALDVDWQSNNTFASCSTDMCIHVCKLGQDRPIKTFQGHTNEVNAIKWDPTGNLLASCSDDMTLKIWSMKQDNCVHDLQAHNKEIYTIKWSPTGPGTNNPNANLMLASASFDSTVRLWDVDRGICIHTLTKHQEPVYSVAFSPDGRYLASGSFDKCVHIWNTQTGALVHSYRGTGGIFEVCWNAAGDKVGASASDGSVCVLDLRK
